Assay results from PMC11395016.
No constants are given. Whether binding was seen depends on the method and setting. Binding seen in cells or lysates may run through a third protein. Some results given as binding are weak or reduced against the parent protein; the word gives no strength.

Chains of the proteins cited; added tags and fusions are not shown.
UniProt Q00987: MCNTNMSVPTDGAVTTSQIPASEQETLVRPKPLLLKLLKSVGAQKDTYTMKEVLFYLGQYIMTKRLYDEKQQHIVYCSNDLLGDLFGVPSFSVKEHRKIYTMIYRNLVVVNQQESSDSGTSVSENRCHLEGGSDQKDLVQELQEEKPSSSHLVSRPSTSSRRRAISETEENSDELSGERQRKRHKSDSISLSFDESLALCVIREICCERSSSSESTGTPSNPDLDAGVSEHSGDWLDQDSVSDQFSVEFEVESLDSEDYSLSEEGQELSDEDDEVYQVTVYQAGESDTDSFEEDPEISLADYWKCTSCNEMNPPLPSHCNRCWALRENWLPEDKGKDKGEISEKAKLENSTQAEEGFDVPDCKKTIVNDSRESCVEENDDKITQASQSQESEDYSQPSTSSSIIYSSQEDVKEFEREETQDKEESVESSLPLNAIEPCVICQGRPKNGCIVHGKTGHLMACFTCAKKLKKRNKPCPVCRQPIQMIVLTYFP
UniProt P25098: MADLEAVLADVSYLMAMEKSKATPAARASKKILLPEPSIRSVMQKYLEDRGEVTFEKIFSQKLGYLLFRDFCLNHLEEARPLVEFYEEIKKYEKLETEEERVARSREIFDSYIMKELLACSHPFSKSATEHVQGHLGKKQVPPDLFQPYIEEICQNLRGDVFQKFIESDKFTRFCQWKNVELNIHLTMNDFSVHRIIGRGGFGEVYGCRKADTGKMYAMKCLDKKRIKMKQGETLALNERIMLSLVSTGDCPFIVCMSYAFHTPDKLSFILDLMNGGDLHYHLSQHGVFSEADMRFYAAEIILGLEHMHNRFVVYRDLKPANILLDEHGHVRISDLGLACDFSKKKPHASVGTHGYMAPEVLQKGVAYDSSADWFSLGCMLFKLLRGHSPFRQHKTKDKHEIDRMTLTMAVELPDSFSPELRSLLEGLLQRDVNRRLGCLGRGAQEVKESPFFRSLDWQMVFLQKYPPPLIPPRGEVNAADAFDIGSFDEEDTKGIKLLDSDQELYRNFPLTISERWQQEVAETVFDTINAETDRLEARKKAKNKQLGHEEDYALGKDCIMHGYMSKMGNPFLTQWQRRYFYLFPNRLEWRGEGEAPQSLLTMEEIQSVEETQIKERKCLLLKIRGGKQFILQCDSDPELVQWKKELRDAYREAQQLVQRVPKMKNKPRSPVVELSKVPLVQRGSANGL

Molecular target: FLAG-Mdm2 (UniProt Q00987)
Assay: co-IP; HEK-293 cells transfected with D2R, GRK2 and FLAG-Mdm2; vehicle or 10 μM dopamine for 2 min; nuclear and cytoplasmic fractions each immunoprecipitated with FLAG beads; blot for GRK2

## GRK2 (from UniProt P25098 1-689) (enzyme)
  binding: binds
